Measurements: PMC9251840
No constants are given. Whether binding was seen depends on the method and setting. Binding seen in cells or lysates may run through a third protein. Some results given as binding are weak or reduced against the parent protein; the word gives no strength.

The chains behind the UniProt entries cited, without tags or fusion partners.
UniProt P51532: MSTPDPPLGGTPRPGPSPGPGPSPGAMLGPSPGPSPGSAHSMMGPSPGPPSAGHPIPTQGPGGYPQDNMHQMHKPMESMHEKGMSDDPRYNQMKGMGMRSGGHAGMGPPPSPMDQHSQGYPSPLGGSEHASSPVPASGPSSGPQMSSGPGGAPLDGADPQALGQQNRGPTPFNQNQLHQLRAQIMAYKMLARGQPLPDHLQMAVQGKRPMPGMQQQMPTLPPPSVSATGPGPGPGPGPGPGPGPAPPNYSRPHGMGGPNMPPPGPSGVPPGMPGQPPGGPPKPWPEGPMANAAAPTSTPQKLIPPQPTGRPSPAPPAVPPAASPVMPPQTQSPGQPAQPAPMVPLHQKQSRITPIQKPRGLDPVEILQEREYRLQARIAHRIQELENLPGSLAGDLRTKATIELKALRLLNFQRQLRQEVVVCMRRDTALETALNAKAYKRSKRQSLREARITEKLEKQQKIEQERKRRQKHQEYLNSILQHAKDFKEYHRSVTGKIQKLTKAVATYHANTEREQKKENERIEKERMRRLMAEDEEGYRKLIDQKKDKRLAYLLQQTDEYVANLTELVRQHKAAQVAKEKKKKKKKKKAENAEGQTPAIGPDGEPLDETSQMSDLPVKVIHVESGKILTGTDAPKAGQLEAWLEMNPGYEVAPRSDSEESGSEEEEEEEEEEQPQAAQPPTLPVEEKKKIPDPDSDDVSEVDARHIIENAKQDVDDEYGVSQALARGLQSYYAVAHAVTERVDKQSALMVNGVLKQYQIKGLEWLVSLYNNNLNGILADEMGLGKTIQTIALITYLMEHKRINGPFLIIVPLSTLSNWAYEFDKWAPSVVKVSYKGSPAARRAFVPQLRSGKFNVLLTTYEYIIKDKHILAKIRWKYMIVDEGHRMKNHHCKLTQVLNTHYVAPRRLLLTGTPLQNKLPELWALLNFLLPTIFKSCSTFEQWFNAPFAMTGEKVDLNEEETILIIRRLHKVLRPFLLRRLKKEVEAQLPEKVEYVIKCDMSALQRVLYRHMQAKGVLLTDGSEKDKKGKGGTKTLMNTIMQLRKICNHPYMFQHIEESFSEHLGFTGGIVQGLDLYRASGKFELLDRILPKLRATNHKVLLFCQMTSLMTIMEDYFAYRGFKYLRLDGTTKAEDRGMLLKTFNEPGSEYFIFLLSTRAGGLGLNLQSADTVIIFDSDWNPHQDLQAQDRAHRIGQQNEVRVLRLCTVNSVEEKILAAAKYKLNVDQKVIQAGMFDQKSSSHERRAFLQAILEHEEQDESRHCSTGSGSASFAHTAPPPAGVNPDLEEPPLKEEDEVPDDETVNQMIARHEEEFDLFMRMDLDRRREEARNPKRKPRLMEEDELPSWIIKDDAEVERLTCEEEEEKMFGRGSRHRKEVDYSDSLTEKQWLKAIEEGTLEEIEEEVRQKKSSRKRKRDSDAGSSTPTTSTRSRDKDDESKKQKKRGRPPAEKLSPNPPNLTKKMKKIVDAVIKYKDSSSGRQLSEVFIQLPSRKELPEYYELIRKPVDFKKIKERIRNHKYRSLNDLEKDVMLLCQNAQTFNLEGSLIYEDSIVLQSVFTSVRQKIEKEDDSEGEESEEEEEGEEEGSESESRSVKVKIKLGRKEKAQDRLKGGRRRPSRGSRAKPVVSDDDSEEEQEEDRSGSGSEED
UniProt Q969G3: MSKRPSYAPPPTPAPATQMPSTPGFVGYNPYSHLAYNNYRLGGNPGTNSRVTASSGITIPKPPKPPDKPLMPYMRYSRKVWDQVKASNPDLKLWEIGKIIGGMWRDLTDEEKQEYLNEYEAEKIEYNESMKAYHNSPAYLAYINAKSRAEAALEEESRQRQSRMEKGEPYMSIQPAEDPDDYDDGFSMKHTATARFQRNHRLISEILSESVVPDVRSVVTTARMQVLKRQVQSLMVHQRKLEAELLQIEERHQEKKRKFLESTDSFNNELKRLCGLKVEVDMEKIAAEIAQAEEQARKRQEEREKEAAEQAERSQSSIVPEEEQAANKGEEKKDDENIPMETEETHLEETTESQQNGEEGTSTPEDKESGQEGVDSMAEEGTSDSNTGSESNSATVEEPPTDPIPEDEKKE
UniProt Q01844: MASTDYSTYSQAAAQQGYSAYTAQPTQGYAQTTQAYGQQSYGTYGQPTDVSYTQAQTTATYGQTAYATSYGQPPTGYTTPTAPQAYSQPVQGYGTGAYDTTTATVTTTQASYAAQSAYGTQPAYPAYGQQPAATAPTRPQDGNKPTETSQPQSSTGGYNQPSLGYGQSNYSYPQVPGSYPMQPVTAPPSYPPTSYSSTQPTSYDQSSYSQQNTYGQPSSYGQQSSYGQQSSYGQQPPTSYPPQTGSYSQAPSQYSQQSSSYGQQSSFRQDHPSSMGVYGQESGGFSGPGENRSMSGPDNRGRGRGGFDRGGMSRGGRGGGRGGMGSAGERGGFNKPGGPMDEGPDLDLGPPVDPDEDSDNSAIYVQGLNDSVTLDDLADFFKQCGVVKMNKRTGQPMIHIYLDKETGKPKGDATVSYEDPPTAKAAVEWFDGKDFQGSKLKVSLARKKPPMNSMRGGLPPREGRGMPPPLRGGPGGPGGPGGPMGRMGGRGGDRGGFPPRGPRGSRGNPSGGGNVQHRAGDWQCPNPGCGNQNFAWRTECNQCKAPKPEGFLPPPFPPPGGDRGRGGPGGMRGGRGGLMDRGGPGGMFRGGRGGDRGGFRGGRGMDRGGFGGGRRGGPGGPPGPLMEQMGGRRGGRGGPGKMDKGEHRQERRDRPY
UniProt P35637: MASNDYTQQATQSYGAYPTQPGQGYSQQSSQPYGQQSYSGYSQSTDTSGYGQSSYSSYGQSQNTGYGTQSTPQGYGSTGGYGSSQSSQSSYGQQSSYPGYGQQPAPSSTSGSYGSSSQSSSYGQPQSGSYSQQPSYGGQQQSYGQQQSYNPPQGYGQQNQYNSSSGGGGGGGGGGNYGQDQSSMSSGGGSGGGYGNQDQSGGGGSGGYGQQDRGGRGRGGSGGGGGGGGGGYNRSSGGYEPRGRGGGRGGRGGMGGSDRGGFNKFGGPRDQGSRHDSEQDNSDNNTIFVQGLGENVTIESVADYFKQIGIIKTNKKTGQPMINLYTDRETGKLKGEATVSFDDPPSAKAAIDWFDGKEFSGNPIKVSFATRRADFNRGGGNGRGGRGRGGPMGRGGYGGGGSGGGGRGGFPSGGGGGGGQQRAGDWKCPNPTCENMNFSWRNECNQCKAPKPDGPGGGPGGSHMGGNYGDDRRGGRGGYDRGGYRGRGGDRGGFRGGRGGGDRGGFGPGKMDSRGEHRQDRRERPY

Experiments:
[1] = target: BRG1 (human (endogenous in MLS 402-91, MLS 1765-92, EWS TC-71, HT1080)) (UniProt P51532); assay: co-IP; BRG1-biotin IP of nuclear extracts of HT1080 cells transiently transfected (24 h) with FUS-DDIT3-EGFP, EWSR1-FLI1-EGFP or EGFP control; western blot
[2] = target: BRG1 (human (endogenous in MLS 402-91, MLS 1765-92, EWS TC-71, HT1080)) (UniProt P51532); assay: co-IP; indirect IP with BRG1-biotin antibody and streptavidin beads of sequential salt nuclear extracts (250, 500 and 1000 mM KCl, diluted to 150 mM) of MLS 402-91 and EWS TC-71; quantitative western blot

BAF57 (from UniProt Q969G3 1-411)
binding [1]: binds | binding [2]: binds

EWSR1 (normal FET protein) (from UniProt Q01844 1-656)
binding [2]: binds weakly

FUS (normal FET protein) (from UniProt P35637 1-526)
binding [2]: binds weakly
